The source of these data is PMC5622097.

The target of this assay is FLAG-Gαi3. Put plainly: affinity purification with mass spectrometry; SILAC-labelled HEK293 cells stably expressing FLAG-Gαi3 and mycKOR, treated 5.5 h with vehicle or norBNI (10 µM); solubilized in 1% digitonin in coIP buffer; anti-FLAG agarose overnight at 4 °C, eluted with 3xFLAG peptide; specificity control with excess FLAG peptide.

Results are given in words; binding and its absence hold for the method and conditions named. In cells and extracts the contact can be indirect. Here binding means that the protein was enriched with, or labelled near, the bait; the list need not be complete.

B1: peroxiredoxin 6 (PRDX6) (enzyme, UniProt P30041 1-224)
chain: MPGGLLLGDVAPNFEANTTVGRIRFHDFLGDSWGILFSHPRDFTPVCTTELGRAAKLAPEFAKRNVKLIALSIDSVEDHLAWSKDINAYNCEEPTEKLPFPIIDDRNRELAILLGMLDPAEKDEKGMPVTARVVFVFGPDKKLKLSILYPATTGRNFDEILRVVISLQLTAEKRVATPVDWKDGDSVMVLPTIPEEEAKKLFPKGVFTKELPSGKKYLRYTPQP
In the case of B1, the binding result is “binds”.
